From PMC10289004
These are yes or no findings as the source states them, for the method shown. Binding seen in cells or lysates may run through a third protein. Some results given as binding are weak or reduced against the parent protein; the word gives no strength.

By UniProt entry, the sequences of proteins in these tests, tags left out. Where a name states a change or a piece, a line headed by the entry shows the natural chain unless it says otherwise.
UniProt Q13546: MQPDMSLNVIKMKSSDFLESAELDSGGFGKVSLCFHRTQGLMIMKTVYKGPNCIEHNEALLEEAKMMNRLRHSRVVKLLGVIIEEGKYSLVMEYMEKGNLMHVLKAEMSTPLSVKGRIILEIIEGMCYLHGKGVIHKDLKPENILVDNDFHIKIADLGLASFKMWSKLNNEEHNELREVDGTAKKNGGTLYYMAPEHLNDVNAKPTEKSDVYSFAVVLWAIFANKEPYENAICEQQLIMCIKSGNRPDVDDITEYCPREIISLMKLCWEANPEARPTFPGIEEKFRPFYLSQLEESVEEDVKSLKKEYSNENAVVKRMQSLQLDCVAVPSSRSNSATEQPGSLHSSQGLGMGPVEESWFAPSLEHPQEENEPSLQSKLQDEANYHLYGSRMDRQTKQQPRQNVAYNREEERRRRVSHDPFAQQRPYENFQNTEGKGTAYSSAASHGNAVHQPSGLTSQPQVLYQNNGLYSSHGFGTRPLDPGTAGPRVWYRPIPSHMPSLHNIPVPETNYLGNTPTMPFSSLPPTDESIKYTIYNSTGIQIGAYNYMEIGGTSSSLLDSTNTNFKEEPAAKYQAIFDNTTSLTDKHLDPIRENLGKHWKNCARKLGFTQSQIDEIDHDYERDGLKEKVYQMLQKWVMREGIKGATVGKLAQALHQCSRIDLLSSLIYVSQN
UniProt Q9QZL0: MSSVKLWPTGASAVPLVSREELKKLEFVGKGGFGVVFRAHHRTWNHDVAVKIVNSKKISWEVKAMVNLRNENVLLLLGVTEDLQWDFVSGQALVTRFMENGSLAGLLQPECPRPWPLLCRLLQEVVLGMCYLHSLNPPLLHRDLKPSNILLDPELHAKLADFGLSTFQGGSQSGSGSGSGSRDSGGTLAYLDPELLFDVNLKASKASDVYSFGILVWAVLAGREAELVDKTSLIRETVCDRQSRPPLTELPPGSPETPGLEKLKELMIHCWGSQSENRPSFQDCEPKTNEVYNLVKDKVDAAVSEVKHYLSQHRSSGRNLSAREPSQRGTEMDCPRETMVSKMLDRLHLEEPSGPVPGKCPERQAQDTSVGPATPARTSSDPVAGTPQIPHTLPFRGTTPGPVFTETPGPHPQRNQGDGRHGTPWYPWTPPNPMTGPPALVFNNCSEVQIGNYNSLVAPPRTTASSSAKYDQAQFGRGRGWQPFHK
UniProt Q9Y572: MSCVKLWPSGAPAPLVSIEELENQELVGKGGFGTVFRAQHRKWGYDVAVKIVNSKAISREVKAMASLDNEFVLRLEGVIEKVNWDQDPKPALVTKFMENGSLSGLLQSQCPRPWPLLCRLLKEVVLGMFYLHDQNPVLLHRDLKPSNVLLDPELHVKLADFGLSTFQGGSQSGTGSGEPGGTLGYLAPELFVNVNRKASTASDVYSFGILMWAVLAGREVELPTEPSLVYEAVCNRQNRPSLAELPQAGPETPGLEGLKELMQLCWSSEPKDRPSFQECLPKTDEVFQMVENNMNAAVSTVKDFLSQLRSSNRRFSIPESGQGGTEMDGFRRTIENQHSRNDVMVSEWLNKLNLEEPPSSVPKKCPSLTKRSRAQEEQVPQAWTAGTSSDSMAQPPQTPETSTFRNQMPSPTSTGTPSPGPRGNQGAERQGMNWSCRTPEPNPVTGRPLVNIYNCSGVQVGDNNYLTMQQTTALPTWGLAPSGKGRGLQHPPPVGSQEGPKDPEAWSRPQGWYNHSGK

How the values were obtained:
[1] = target: RIPK1 S331A reconstituted in MEF Ripk1-/- cells (human) (UniProt Q13546); assay: co-IP; MEF Ripk1-/- cells transfected with RIPK1 WT or S331A for 20-24 h, then 4 h TSZ, lysed; endogenous RIPK3
[2] = target: HA-RIPK1 S331A (human) (UniProt Q13546); assay: co-IP; HEK293 cells co-transfected with HA-RIPK1 (WT or S331A) and FLAG-RIPK3, lysed 24 h later; with or without co-transfected OGT or TMG treatment
[3] = target: HA-RIPK1 wild type (human) (UniProt Q13546); assay: as above

| Substance | binding [1] | binding [2] | binding [3] |
| --- | --- | --- | --- |
| endogenous RIPK3 in MEF Ripk1-/- cells (from UniProt Q9QZL0 1-486) | binds | – | – |
| FLAG-RIPK3 (from UniProt Q9Y572 1-518) | – | binds | binds |
